Measured values reported in patent publication US9733262B2, “Method for measuring blood coagulation” (SEKISUI MEDICAL CO., LTD., priority 2009, dated 2017).
Structures can show the parent of a compound that is named as a salt.

test system: commercially available normal plasma (Coagtrol N); assay: Fibrinogen measurement by thrombin time method: coagulation time and change in scattered light intensity of normal plasma after adding thrombin reagent; format: biochemical; details: Table 1; agent in specimen diluent (HEPES buffer pH 7.5), amount adjusted to similar coagulation time: NaCl 145 mM, NaBr 110, KBr 105, KCl 135, LiCl 135, guanidine HCl 90, guanidine phosphate 30, guanidine sulfamate 55, aminoguanidine HCl 90, arginine HCl 55, arginine methyl ester 17 mM; single measurement for conventional methods (2)-(5), ten times for the others
Method: When a fibrinogen concentration in a plasma specimen is measured by a thrombin time method, in general, thrombin is added to plasma to measure a coagulation time, and the concentration is determined from a standard curve prepared using standard solutions having known fibrinogen concentrations. In the procedure, 90 μL of a specimen diluent are added to and mixed with 10 μL of specimen plasma, subsequently 50 μL of a thrombin-containing reagent are added as a blood coagulation activator-containing reagent, and a coagulation time is measured.
In this example, commercially available normal plasma (Coagtrol N, manufactured by Sysmex Corporation) as the plasma specimen, a Coagpia Fbg thrombin reagent (manufactured by Sekisui Medical Co., Ltd.) as the thrombin-containing reagent, and a full-automated blood coagulation time analyzer Coagrex 800 (manufactured by Sysmex Corporation) as a coagulation time measurement apparatus were used. This apparatus employs a scattered light detection method, and change data of scattered light intensity with time can also be obtained along with the coagulation time.
When an HEPES buffer (pH 7.5) was used as the specimen diluent, the commercially available normal plasma coagulated in several seconds (4.6 seconds).
Commercially available normal plasma was measured in the same manner as in Example 1 using the specimen diluent (HEPES buffer, pH 7.5) in which the amount of the blood coagulation time prolonging agent added was adjusted so as to obtain the similar coagulation time. The comparative results of the maximum of a change ΔH in scattered light intensity and of the simultaneous reproducibility of the measurements between in the conventional method and in the present invention were shown in Table 1.
A specimen diluent containing sodium chloride as the blood coagulation time prolonging agent was defined as a conventional method A and a specimen diluent further containing polyethylene glycol (molecular weight: 20000) (hereinafter, referred to as PEG 20000) as an enhancer of a change in light intensity in the conventional method A was defined as a conventional method B, and the specimen diluents were compared with a specimen diluent employing aminoguanidine hydrochloride (present invention) which served as both of the blood coagulation time prolonging agent and the enhancer of a change in light intensity. It should be noted that an HEPES buffer (pH 7.5) was used as a buffer in all of the cases. Further, the concentration of PEG 20000 to be added in the conventional method B was set to 0.1%, because a large amount of PEG 20000 could increase the viscosity of diluent and reduce the accuracy of sampling. The coagulation time of commercially available normal plasma was measured in the same manner as in Example 1 using each specimen diluent. The change of the scattered light intensity in the conventional method B with the addition of PEG 20000 became larger than in the conventional method A without the addition.

Q: `[Cl-].[K+]` [Potassium chloride] was tested. Which “ΔH (maximum of a change in scattered light intensity)” value did it give?
A: 2,170

Q: For `N=C(N)NN` [Aminoguanidine hydrochloride], which “ΔH (maximum of a change in scattered light intensity)” value is on record?
A: 3,480

Q: For `[Br-].[K+]` [Potassium bromide], which “ΔH (maximum of a change in scattered light intensity)” value is on record?
A: 2,127

Q: How did the “ΔH (maximum of a change in scattered light intensity)” value turn out when `N=C(N)N.NS(=O)(=O)O` [Guanidine sulfamate] was run?
A: 5,167

Q: `[Cl-].[Na+]` [Sodium chloride] was tested. Which “ΔH (maximum of a change in scattered light intensity)” value did it give?
A: 2,348

Q: With `N=C(N)N.O=P(O)(O)O` [Guanidine phosphate] as the molecule, how does the “ΔH (maximum of a change in scattered light intensity)” value read?
A: 4,217

Q: For `Cl.N=C(N)NCCC[C@H](N)C(=O)O` [Arginine hydrochloride], which “ΔH (maximum of a change in scattered light intensity)” value is on record?
A: 3,529

Q: `[Cl-].[Li+]` [Lithium chloride] was tested. Which “ΔH (maximum of a change in scattered light intensity)” value did it give?
A: 2,305

Q: With `COC(=O)[C@@H](N)CCCNC(=N)N` [Arginine methyl ester] as the molecule, how does the “ΔH (maximum of a change in scattered light intensity)” value read?
A: 6,130

Q: For `[Br-].[Na+]` [Sodium bromide], which “ΔH (maximum of a change in scattered light intensity)” value is on record?
A: 2,174

Q: For `N=C(N)N` [Guanidine hydrochloride], which “ΔH (maximum of a change in scattered light intensity)” value is on record?
A: 4,575

same assay, conditions: Table 2; specimen diluent HEPES buffer pH 7.5; NaCl 150 mM (A), NaCl 150 mM + PEG 20000 0.1% (B), aminoguanidine hydrochloride 90 mM; mean of three times measurement

Q: How did the “Change in light intensity ΔH” value turn out when `N=C(N)NN` [Aminoguanidine hydrochloride] was run?
A: 3,444

Q: Which “Change in light intensity ΔH” value does the source give for `[Cl-].[Na+]` [Sodium chloride] here?
A: 2,194
